Test results taken from PubChem BioAssay (NCATS).
Inconclusive means that the source gave no clear call. Such entries were picked first, then a sample of the others. Potencies of inconclusive entries are doubtful fits and often do not repeat. Activity calls are given as the source filed them. Calls come from the whole dose curve; as a rule, active = well fitted cell-killing curve with a large enough effect; inconclusive = small, poorly fitted or top-dose-only effect, or effect the other way; inactive = no such curve, though single readings can be large or run the other way.

Experiment: Quantitative highthroughput screen to assess conditional lethalithy of SEM cells grown in RPMI1640 with dialyzed fetal bovine serum (RPMI+ds) (AID 1963884); note: nearly all actives have a fitted effect of over 35% in size
Conditions: SEM B-ALL cells, RPMI+dialyzed FBS, CellTiter-Glo viability, 48 h; viability: at 45.8 µM (top of the series)
Source text: Assay Provider: Jason Cantor Ph.D.
Department of Biochemistry
University of Wisconsin-Madison, Madison, WI, USA
Chemical screening studies have identified drug sensitivities across hundreds of cancer cell lines but most putative therapeutics fail to translate. Discovery and development of drug candidates in models that more accurately reflect nutrient levels in human blood is a major challenge. Here we performed high-throughput screens in conventional versus Human Plasma-Like Medium (HPLM) to identify compounds that were "missed" when screening using the artificial culture condition. Sets of conditional anticancer compounds spanned phases of clinical development and included non-oncology drugs were assessed. […] We also traced conditional phenotypes for several chemotherapeutics to availability of HPLM-specific metabolites and confirmed others for compounds whose reported targets are encoded by nonessential genes. Our findings establish generalizable strategies for exploiting conditional lethality in HPLM to reveal therapeutic candidates and mechanisms of action in cancer cells.
Described herein are the results of each viability screens against three cell lines: NOMO1 (an acute myeloid leukemia cell line); P12-Ichikawa (a T-cell acute lymphoblastic leukemia); and SEM (a B-cell ALL). Each assay was screened using 3 different cell culture media: homemade human plasma-Like medium with 10% dialyzed fetal bovine serum (HPLM+ds); RPMI1640 with 10% untreated FBS and 5mM glucose (RPMI+s); and RPMI1640 with 10% dialyzed fetal bovine serum and 5 mM glucose (RPMI+ds).
PROTOCOL TABLE (as described by Inglese J, Shamu CE and Guy RK. 2007)
SEQUENCE No. (e.g., 1, 2, 3, etc.); […] (e.g., Cells, Incubation, Reagent, etc.); VALUE and DESCRIPTION.
1; Cells; 5 uL; white, solid bottom 1536-well Greiner assay plate.
2; Compounds; 23 nL; Kalypsis pin tool (Wako USA) equipped with a 1536-well pin head to transfer to the assay plates.
3; Incubation; 48 hours; 37C incubation.
4; Reagent; 3 uL; CellTiter Glo (Promega).
5; Incubation; 5 min, room temperature
6; Detection; Luminescence, Viewlux PerkinElmer.
NOTES (numbers refer to Sequence numbers above)
1. Briefly, 5 ul of cell reagent was dispensed using a Multidrop Combi Dispenser. The NOMO1 and SEM cells were plated at 500 cells/well and the P12-Ichikawa line at 1000 cells/well.
2. After seeding the cells, 23 nL of MIPE 4.1 library compounds (in DMSO) were added to each plate using a Kalypsys 1536 Pintool dispenser. Bortezomib at final concentration of […] and DMSO were added to each plate as positive and negative controls respectively. For each screen, MIPE 4.1 compounds were added over an eleven-point concentration range […] in 3-fold dilutions.
3. Each plate was covered with a stainless steel gasketed lid to prevent evaporation and incubated for 48 hour at 37C, 95% relative humidity, and 5% CO2.
4-5. Three microliter CellTilter-GloTM luminescent substrate mix (Promega) reagent was added to the assay plate and incubated at room temperature for 5 min.
6. The luminescence signal was measured using a ViewLux (PerkinElmer) multiplate reader with a 2 second exposure time per plate. Data for each compound were normalized as percent viability such that measurements for DMSO and the empty well controls in each plate were defined as 100% and 0%, respectively.
Potency is the fitted concentration of half-maximal effect.

SMILES	Potency	viability
CN1CCC(=C2c3ccccc3CCc3sccc32)CC1	inconclusive: 20900 nM [cytotoxic, single point]	
COc1cc(C(=O)N2CCC(N3CCN(C)CC3)CC2)ccc1Nc1ncc2c(n1)N(C)c1ccccc1C(=O)N2C	inconclusive: 2350 nM [cytotoxic, full curve, poor fit]	
CC=CC(=O)N(CC)c1ccccc1C		inactive: 73.6%
CCN(CC)CCNC(=O)c1c(C)[nH]c(C=C2C(=O)Nc3ccc(F)cc32)c1C	inconclusive: 121 nM [cytotoxic, full curve]	
CCCOc1ccc(C(=O)OCCN(CC)CC)cc1N		inactive: 86.4%
CC1C(=O)OC2C(O)C34C5CC(C(C)(C)C)C36C(OC(=O)C6O)OC4(C(=O)O5)C12O (stereo not given)	inconclusive: 3720 nM [cytotoxic, partial curve, poor fit]	
COc1cccc2c1C(=O)c1c(O)c3c(c(O)c1C2=O)C[C@@](O)(C(=O)CO)C[C@@H]3O[C@H]1C[C@H](N)[C@@H](O)[C@H](C)O1	active: 2640 nM	
CN1CCN(c2c(F)cc3c(=O)c(C(=O)O)cn4c3c2OCN4C)CC1	inconclusive: 1.7 nM [rising, full curve]	
CNS(=O)(=O)CCc1ccc2[nH]cc(C3CCN(C)CC3)c2c1		inactive: 88.7%
Cc1[nH]c(=O)c(C#N)cc1-c1ccc2nccn2c1		inactive: 104%
Clc1ccc(-c2nc3sccn3c2C=NOCc2ccc(Cl)c(Cl)c2)cc1		inactive: 106%
O=C(O)c1cc(=O)[nH]c(=O)[nH]1		inactive: 99.1%
CO[C@H]1C=CO[C@@]2(C)Oc3c(C)c(O)c4c(O)c(c5c(c4c3C2=O)NC2(CCN(CC(C)C)CC2)N=5)=NC(=O)C(C)=CC=C[C@H](C)[C@H](O)[C@@H](C)[C@@H](O)[C@@H](C)[C@H](OC(C)=O)[C@H]1C		inactive: 80.9%
CC1(C)OC2CC3C4CC(F)C5=CC(=O)C=CC5(C)C4C(O)CC3(C)[C@]2(C(=O)CO)O1 (stereo not given in full)	inconclusive: 264 nM [cytotoxic, full curve]	
CC(C)(C)c1[nH]cnc1C=c1[nH]c(=O)c(=Cc2ccccc2)[nH]c1=O	active: 6.1 nM	
Fc1ccc(C(c2ccc(F)cc2)N2CCN(CC=Cc3ccccc3)CC2)cc1	inconclusive: 1870 nM [cytotoxic, partial curve, poor fit]	
CC(=O)N(O)CCCCCNC(=O)CCC(=O)N(O)CCCCCNC(=O)CCC(=O)N(O)CCCCCN	inconclusive: 14.8 nM [cytotoxic, full curve]	
COc1ccccc1N1CCN(CCN(C(=O)C2CCCCC2)c2ccccn2)CC1		inactive: 97.2%
O=C1CCc2ccc(OCCCCN3CCN(c4cccc(Cl)c4Cl)CC3)cc2N1	inconclusive: 37200 nM [cytotoxic, single point]	

Individual results from the results shown:
Value for `COc1cc(C(=O)N2CCC(N3CCN(C)CC3)CC2)ccc1Nc1ncc2c(n1)N(C)c1ccccc1C(=O)N2C` under Potency: inconclusive: 2350 nM [cytotoxic, full curve, poor fit]
Value for `CN1CCC(=C2c3ccccc3CCc3sccc32)CC1` under Potency: inconclusive: 20900 nM [cytotoxic, single point]

Later entries

SMILES	Potency	viability
CCn1c(-c2nonc2N)nc2cnc(Oc3cccc(NC(=O)c4ccc(OCCN5CCOCC5)cc4)c3)cc21	inconclusive: 23500 nM [cytotoxic, partial curve, poor fit]	
NC(=O)c1cnccn1		inactive: 88%
O=C(O)CSCC(=O)NC1CCSC1=O (stereo not given)		inactive: 90.4%
Cc1cc(=O)c2c(O)c3c(O)cc(=O)c4c3c3c(cc(O)c1c23)C(C)(C)C=4O		inactive: 86.9%
C[C@@H](CN1CC(=O)NC(=O)C1)N1CC(=O)NC(=O)C1	active: 74.3 nM	
Clc1ccc(C(Cn2ccnc2)OCc2c(Cl)cccc2Cl)c(Cl)c1 (stereo not given)		inactive: 72.4%
O=C(O)CCc1ccc(NCc2cccc(Oc3ccccc3)c2)cc1	inconclusive: 1.7 nM [rising, full curve]	
COc1cc(O)c2c(c1)C(=O)c1cc(C)cc(O)c1C2=O	active: 5120 nM	
O=C(NCC1CCCCN1)c1cc(OCC(F)(F)F)ccc1OCC(F)(F)F (stereo not given)		inactive: 74.4%
CON=C(C(=O)N[C@@H]1C(=O)N2C(C(=O)O)=C(CSC(=O)c3ccco3)CS[C@H]12)c1csc(N)n1		inactive: 107%
CCc1cc(Nc2nccc(-c3c(-c4ccc(OC)c(C(=O)Nc5c(F)cccc5F)c4)nc4ccccn34)n2)c(OC)cc1N1CCC(N2CCN(S(C)(=O)=O)CC2)CC1	inconclusive: 18700 nM [cytotoxic, partial curve]	
O=C1Cc2cc(CCN3CCN(c4nsc5ccccc45)CC3)c(Cl)cc2N1		inactive: 66%
CC1(C)O[C@@H]2C[C@@H]3[C@H]4C[C@@H](F)C5=CC(=O)C=C[C@]5(C)[C@@]4(F)[C@@H](O)C[C@]3(C)[C@]2(C(=O)CO)O1	inconclusive: 20.9 nM [cytotoxic, full curve]	
C=CC(=O)Nc1ccc2ncnc(Nc3ccc(OCc4cccc(F)c4)c(Cl)c3)c2c1	active: 8330 nM	
CN(C)CCN(C)C(=O)c1ccc(NC(=O)Nc2ccc(-c3nc(N4CCOCC4)c4ccn(CC(F)(F)F)c4n3)cc2)cc1	inconclusive: 105 nM [cytotoxic, full curve]	
CC1COC2(CCN(c3nc(=O)c4cc(C(F)(F)F)cc([N+](=O)[O-])c4s3)CC2)O1 (stereo not given)	inconclusive: 10500 nM [cytotoxic, full curve]	
CN(C)CCC=C1c2ccccc2C=Cc2ccccc21		inactive: 82.5%
CN(C)CCCNC(=O)c1ccc(-c2cc(O)c3ncccc3c2)cc1	inconclusive: 18700 nM [cytotoxic, partial curve]	
CN(C)CCOc1ccc(C(=C(CCCl)c2ccccc2)c2ccccc2)cc1	inconclusive: 5260 nM [cytotoxic, partial curve, poor fit]	
Cc1cc2c(cc1C1(c3ccc(C(=O)O)cn3)CC1)C(C)(C)CCC2(C)C	active: 66.2 nM	
